PMC5732323
No constants are given. Whether binding was seen depends on the method and setting. In cells and extracts the contact can be indirect. Binding can be weak; no strength is given.

Protein sequences, listed by entry. Tags and fused reporters are not part of them. Lines headed by an entry give the natural chain unless they say otherwise; changes in a name come on top.
UniProt Q8BUN5: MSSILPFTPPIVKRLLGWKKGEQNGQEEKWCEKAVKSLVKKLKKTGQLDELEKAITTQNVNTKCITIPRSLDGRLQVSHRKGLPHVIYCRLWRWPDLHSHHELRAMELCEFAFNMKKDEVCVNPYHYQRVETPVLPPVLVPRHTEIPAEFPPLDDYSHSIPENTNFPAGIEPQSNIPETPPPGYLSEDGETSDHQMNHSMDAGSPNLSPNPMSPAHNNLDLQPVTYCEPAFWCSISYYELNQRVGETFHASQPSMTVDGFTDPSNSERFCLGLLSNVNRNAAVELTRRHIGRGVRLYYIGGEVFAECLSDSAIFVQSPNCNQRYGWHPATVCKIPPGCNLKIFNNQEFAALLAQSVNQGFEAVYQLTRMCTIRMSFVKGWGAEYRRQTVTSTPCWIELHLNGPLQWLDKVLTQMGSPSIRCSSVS
UniProt Q3TKT4: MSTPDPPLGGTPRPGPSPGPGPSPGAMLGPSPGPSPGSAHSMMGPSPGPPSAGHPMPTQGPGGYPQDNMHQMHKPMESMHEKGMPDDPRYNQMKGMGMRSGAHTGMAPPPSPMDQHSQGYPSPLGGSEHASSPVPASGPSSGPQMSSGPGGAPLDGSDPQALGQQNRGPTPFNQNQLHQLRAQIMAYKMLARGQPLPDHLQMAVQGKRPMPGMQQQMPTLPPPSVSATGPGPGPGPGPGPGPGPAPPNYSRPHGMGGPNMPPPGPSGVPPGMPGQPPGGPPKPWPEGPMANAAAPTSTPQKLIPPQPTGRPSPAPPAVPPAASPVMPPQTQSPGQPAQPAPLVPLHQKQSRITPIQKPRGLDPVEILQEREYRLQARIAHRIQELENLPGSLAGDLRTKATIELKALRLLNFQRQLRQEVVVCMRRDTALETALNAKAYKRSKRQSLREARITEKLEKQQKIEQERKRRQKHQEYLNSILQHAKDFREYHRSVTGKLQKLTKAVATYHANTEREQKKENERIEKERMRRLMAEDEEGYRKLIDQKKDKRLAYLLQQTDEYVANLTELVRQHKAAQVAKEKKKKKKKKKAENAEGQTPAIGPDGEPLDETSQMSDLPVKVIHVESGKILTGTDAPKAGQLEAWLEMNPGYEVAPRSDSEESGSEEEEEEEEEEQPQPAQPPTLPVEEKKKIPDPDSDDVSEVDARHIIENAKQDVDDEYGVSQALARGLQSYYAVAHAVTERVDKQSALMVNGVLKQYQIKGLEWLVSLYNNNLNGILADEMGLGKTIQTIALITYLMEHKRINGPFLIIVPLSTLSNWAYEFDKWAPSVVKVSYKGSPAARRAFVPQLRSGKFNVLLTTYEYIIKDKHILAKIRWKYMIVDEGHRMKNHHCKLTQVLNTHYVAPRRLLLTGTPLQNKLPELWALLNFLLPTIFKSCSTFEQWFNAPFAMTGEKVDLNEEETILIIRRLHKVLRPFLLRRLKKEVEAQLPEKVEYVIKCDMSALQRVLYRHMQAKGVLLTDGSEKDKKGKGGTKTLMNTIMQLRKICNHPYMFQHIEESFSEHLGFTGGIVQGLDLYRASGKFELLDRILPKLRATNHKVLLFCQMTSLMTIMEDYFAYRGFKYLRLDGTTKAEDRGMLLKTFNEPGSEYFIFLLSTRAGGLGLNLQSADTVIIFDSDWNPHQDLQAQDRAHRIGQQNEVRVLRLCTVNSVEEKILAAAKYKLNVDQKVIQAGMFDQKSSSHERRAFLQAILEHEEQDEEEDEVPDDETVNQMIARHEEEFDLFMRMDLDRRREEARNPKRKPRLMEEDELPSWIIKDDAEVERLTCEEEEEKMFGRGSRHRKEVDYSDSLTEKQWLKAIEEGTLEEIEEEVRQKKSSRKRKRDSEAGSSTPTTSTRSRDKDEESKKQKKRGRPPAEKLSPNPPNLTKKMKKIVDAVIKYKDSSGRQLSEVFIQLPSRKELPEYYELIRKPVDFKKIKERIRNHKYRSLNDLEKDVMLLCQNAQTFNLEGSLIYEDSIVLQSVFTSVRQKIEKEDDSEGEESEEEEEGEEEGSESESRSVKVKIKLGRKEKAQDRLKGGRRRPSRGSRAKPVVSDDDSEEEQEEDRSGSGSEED
UniProt Q99LT0: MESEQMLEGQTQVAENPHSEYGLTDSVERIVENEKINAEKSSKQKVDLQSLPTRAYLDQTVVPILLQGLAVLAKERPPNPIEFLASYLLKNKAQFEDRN
UniProt Q924H2: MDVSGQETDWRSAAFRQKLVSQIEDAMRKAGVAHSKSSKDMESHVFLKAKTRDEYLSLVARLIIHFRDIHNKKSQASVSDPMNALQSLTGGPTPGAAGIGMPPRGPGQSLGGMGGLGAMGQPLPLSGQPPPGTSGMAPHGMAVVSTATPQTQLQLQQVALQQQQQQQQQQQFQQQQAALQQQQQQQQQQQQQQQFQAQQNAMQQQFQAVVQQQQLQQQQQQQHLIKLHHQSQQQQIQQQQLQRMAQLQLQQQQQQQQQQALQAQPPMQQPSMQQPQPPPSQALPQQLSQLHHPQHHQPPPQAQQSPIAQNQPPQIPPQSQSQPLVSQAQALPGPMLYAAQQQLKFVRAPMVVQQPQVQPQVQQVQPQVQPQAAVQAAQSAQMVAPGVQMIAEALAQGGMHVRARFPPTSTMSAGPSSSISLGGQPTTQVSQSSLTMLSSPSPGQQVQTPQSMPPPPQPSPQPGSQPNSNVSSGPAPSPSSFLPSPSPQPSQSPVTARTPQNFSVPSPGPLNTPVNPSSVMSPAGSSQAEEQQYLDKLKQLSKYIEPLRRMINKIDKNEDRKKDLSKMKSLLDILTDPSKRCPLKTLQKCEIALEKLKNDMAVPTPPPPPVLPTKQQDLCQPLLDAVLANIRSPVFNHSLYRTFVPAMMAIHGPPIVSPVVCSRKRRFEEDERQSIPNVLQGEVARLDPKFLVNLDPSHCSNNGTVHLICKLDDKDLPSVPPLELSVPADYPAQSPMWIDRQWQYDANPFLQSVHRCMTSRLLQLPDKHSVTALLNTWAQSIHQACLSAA
UniProt P48432: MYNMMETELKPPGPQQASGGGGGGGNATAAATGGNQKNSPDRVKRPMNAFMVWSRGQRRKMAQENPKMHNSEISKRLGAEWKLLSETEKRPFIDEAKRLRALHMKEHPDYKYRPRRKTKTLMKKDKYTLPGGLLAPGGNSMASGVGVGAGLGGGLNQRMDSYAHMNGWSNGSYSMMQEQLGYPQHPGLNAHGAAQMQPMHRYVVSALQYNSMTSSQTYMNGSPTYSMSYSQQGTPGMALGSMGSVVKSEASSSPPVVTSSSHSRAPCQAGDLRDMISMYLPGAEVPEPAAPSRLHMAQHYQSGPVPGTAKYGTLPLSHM

Target: constitutively active SMAD3 (SMAD3CA) (mouse) (UniProt Q8BUN5)
Assay: co-IP; anti-SMAD3 on Protein G Dynabeads, 200 ug pre-cleared nuclear extract, IP buffer (20 mM HEPES, 1.5 mM MgCl2, 0.2 mM EDTA, 20% glycerol, 100 mM NaCl), 3 h at 4°C; MEFs at day 4 of MKOS reprogramming with Smad3CA expression; blots for the partners

| binding | Substance |
| --- | --- |
| binds | BRG1 (part of the SWI/SNF complex) (from UniProt Q3TKT4 1-1613) |
| binds | DPY30 (part of the MLL complex) (from UniProt Q99LT0 1-99) |
| no binding | MED15 (part of the Mediator complex) (from UniProt Q924H2 1-789) |
| binds | SOX2 (from UniProt P48432 1-319) |
